From patent US20100324102A1, “N-(3-PYRIDIN-2-YLPROPYL) BENZAMIDE DERIVATIVES AS FUNGICIDES” (BAYER CROPSCIENCE AG, priority 2006, published 2010)
Some entries share one result that the patent states for a list of compounds.

Test system: Erysiphe graminis f. sp. tritici
Experiment: In vivo test on Erysiphe graminis f. sp. tritici (wheat powdery mildew)
Details: wheat plants (Audace variety), preventive spray at 330 ppm, contamination after 24 hours, grading 7 to 14 days after contamination vs control plants

Compound	protection
O=C(NCCCc1ncc(C(F)(F)F)cc1Cl)c1c(F)cccc1F [Compound 3]	at least 70%
Cc1ccccc1C(=O)NCCCc1ncc(C(F)(F)F)cc1Cl [Compound 4]	at least 70%
